PubChem BioAssay AID1259254 | NCATS, 2017

Purpose: 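Finding genes that stop cells copying their DNA twice in one cycle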 (primary screen)
System: human HCT116 colorectal cancer cells
Reagent: single siRNA against human genes
Time to read-out: 3 days
Read-out: 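Imaged Hoechst DNA stain sorts each cell into a cycle phase by DNA amount; per plate, G2 fraction set to 0% for non-targeting and 100% for GMNN siRNA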
Direction: G2 robust z-score: higher = more G2 cells, more excess DNA replication
Rule for the call: 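Active siRNAs have a G2 robust z of 5 or more median absolute deviations over the median, which in these data means about 38% or higher of GMNN control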
Shown is an unselected part of about 59,000 deposited reagents. Of all reagents, about 1,550 (2.6%) are marked active. 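G2 share is only a proxy for re-replication; each gene was hit by three separate siRNAs, and active genes were retested.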 Reagents against one gene are numbered here. Not all columns of the deposit are shown. Not given: the amount of reagent.

Gene | siRNA no. | G2 robust z-score | outcome
IL20RA | 1 | -1.19 | inactive
IL20RA | 2 | -0.752 | inactive
IL20RA | 3 | 1.7 | inactive
RAPGEF1 | 1 | 1.5 | inactive
RAPGEF1 | 2 | 9.6 | active
RAPGEF1 | 3 | 2.45 | inactive
PRSS38 | 1 | 2.17 | inactive
PRSS38 | 2 | 1.79 | inactive
PRSS38 | 3 | -0.734 | inactive
SERTAD4 | 1 | 0.941 | inactive
SERTAD4 | 2 | 0.546 | inactive
SERTAD4 | 3 | 0.0366 | inactive
C19orf81 | 1 | 1.62 | inactive
C19orf81 | 2 | -0.0532 | inactive
C19orf81 | 3 | 0.138 | inactive
PCDH9 | 1 | -0.0215 | inactive
PCDH9 | 2 | -1.19 | inactive
PCDH9 | 3 | -0.108 | inactive
GALNT11 | 1 | 1.94 | inactive
GALNT11 | 2 | -0.394 | inactive
GALNT11 | 3 | 2.09 | inactive
GLMN | 1 | -0.409 | inactive
GLMN | 2 | 0.247 | inactive
GLMN | 3 | 3.33 | inactive
KMT2E | 1 | 2.06 | inactive
KMT2E | 2 | 4.52 | inactive
KMT2E | 3 | -0.633 | inactive
TC2N | 1 | 2.49 | inactive
TC2N | 2 | 0.37 | inactive
TC2N | 3 | 0.357 | inactive
KCNJ10 | 1 | 0.194 | inactive
KCNJ10 | 2 | 1.47 | inactive
KCNJ10 | 3 | -0.422 | inactive
NUP155 | 1 | -0.511 | inactive
NUP155 | 2 | -0.672 | inactive
NUP155 | 3 | 0.185 | inactive
PLEKHG2 | 1 | -0.22 | inactive
PLEKHG2 | 2 | -0.902 | inactive
PLEKHG2 | 3 | 1.68 | inactive
BIRC6 | 1 | -0.8 | inactive
BIRC6 | 2 | -0.779 | inactive
BIRC6 | 3 | -0.0474 | inactive
ECHDC1 | 1 | 2.6 | inactive
ECHDC1 | 2 | 1.9 | inactive
ECHDC1 | 3 | 0.168 | inactive
LEO1 | 1 | -0.522 | inactive
LEO1 | 2 | 3.13 | inactive
LEO1 | 3 | 0.919 | inactive
PGBD1 | 1 | -0.555 | inactive
PGBD1 | 2 | 2.75 | inactive
PGBD1 | 3 | 0.0102 | inactive
SHE | 1 | 0.646 | inactive
SHE | 2 | -0.00835 | inactive
SHE | 3 | 1.06 | inactive
SNRNP27 | 1 | -1 | inactive
SNRNP27 | 2 | -0.118 | inactive
SNRNP27 | 3 | 0.881 | inactive
GNLY | 1 | 0.0947 | inactive
GNLY | 2 | -0.526 | inactive
GNLY | 3 | 3.32 | inactive
R3HDM1 | 1 | -0.158 | inactive
R3HDM1 | 2 | 0.0217 | inactive
R3HDM1 | 3 | -0.908 | inactive
PPIF | 1 | -0.463 | inactive
PPIF | 2 | -0.727 | inactive
PPIF | 3 | -0.768 | inactive
STBD1 | 1 | -0.285 | inactive
STBD1 | 2 | 0.458 | inactive
STBD1 | 3 | -0.0714 | inactive
RAB18 | 1 | 0.585 | inactive
RAB18 | 2 | 0.926 | inactive
RAB18 | 3 | 0.153 | inactive
SIK2 | 1 | 0.0569 | inactive
SIK2 | 2 | 0.9 | inactive
SIK2 | 3 | -0.358 | inactive
C2orf66 | 1 | -1.03 | inactive
C2orf66 | 2 | 4.28 | inactive
C2orf66 | 3 | -1.31 | inactive
ADCK2 | 1 | -1.02 | inactive
ADCK2 | 2 | 0.32 | inactive
ADCK2 | 3 | 1.29 | inactive
REC114 | 1 | 0.494 | inactive
REC114 | 2 | -0.473 | inactive
REC114 | 3 | 3.14 | inactive
VAMP4 | 1 | 0.0136 | inactive
VAMP4 | 2 | 0.887 | inactive
VAMP4 | 3 | 0.137 | inactive

A few values from the entries so far:
For “G2 robust z-score”, KMT2E #1 reads 2.06
For “outcome”, GALNT11 #2 has inactive
Under “G2 robust z-score”, SIK2 #3 has -0.358
Under “G2 robust z-score”, PPIF #3 is entered as -0.768
RAB18 #1, outcome → inactive
Value for BIRC6 #2 under “outcome”: inactive
